What all share (experiment): co-IP; whole lysates of transfected HEK cells (30 min, 4°C, HEPES buffer, 1% Lubrol or 1% TritonX-100); antibody 1 h 4°C, ProteinG-Sepharose 1 h; Western blot
A general note: In western blotting, separated proteins are transferred to a membrane and probed.

Chains of the proteins cited; added tags and fusions are not shown. Residues count along the entry.
UniProt P08648, residues 42-1049: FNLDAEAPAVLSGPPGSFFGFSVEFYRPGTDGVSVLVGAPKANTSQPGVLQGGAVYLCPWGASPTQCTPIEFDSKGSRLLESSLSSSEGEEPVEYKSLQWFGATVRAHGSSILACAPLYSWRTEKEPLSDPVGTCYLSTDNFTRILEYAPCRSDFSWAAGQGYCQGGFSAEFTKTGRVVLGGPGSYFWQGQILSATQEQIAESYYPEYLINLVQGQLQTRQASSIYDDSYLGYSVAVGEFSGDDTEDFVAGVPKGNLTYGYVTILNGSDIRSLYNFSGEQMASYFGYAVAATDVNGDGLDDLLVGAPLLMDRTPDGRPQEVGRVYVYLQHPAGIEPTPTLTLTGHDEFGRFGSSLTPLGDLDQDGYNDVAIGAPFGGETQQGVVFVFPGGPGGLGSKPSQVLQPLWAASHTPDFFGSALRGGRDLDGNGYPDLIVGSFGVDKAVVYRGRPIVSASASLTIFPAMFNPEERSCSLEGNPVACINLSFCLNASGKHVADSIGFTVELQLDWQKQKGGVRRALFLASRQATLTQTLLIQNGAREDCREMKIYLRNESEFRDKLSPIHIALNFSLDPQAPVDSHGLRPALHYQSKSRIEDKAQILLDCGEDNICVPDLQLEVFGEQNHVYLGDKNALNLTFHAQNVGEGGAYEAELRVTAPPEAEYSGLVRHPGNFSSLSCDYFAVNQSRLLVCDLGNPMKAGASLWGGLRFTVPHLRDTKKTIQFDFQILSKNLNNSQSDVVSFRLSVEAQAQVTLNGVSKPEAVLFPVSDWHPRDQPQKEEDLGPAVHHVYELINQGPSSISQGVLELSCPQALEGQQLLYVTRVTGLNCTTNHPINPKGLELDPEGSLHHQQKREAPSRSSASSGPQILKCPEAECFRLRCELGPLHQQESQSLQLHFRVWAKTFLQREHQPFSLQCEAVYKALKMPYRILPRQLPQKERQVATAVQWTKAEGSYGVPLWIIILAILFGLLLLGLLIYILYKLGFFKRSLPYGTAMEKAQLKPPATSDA
UniProt O15551: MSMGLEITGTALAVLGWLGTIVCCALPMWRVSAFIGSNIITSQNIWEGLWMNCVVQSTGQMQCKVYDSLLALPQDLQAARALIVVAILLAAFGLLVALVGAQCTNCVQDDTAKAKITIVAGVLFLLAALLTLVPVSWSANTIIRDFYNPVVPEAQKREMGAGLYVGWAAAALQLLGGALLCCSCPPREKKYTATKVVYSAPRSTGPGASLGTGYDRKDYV
UniProt P15311: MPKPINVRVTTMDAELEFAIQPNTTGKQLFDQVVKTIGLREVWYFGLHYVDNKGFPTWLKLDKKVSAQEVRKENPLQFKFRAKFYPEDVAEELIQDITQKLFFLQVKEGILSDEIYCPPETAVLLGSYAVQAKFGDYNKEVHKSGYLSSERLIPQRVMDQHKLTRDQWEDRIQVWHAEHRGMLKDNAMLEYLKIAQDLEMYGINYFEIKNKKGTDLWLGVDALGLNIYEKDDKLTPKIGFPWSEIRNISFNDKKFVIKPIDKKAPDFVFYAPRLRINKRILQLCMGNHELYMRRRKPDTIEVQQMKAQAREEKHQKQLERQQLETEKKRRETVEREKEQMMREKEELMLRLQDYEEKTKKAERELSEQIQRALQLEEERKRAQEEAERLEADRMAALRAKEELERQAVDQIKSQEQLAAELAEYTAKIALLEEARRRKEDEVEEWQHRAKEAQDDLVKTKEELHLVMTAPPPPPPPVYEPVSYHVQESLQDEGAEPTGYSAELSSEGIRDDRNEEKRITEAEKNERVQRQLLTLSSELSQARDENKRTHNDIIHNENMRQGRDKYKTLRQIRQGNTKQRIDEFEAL

The target of assay [1] is ZO-1 (human (endogenous in HEK293)) (UniProt Q07157).
Assay [2] addresses CD49e (human (endogenous in HEK293)) (UniProt P08648).
Assay [3] has as its target T1, CD166 (human (endogenous in HEK293)) (UniProt Q13740).
T1 sequence: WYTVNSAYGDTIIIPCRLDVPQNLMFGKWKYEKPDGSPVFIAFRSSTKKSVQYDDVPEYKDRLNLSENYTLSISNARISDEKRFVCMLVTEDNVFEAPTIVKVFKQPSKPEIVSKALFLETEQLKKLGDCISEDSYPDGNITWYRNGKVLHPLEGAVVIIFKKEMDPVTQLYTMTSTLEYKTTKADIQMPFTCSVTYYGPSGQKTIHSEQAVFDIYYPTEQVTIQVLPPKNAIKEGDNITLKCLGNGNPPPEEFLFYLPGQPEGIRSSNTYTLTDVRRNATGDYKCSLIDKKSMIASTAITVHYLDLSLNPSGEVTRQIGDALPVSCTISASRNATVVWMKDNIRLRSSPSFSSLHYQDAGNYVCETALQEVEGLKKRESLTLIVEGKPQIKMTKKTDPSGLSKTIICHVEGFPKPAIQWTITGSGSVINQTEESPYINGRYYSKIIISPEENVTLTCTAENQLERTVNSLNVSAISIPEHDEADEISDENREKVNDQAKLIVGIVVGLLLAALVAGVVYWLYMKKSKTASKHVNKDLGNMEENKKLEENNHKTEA

The target in assay [4] is T2, ZO-1 (human (endogenous in HEK293)), Q07157.
T2 chain: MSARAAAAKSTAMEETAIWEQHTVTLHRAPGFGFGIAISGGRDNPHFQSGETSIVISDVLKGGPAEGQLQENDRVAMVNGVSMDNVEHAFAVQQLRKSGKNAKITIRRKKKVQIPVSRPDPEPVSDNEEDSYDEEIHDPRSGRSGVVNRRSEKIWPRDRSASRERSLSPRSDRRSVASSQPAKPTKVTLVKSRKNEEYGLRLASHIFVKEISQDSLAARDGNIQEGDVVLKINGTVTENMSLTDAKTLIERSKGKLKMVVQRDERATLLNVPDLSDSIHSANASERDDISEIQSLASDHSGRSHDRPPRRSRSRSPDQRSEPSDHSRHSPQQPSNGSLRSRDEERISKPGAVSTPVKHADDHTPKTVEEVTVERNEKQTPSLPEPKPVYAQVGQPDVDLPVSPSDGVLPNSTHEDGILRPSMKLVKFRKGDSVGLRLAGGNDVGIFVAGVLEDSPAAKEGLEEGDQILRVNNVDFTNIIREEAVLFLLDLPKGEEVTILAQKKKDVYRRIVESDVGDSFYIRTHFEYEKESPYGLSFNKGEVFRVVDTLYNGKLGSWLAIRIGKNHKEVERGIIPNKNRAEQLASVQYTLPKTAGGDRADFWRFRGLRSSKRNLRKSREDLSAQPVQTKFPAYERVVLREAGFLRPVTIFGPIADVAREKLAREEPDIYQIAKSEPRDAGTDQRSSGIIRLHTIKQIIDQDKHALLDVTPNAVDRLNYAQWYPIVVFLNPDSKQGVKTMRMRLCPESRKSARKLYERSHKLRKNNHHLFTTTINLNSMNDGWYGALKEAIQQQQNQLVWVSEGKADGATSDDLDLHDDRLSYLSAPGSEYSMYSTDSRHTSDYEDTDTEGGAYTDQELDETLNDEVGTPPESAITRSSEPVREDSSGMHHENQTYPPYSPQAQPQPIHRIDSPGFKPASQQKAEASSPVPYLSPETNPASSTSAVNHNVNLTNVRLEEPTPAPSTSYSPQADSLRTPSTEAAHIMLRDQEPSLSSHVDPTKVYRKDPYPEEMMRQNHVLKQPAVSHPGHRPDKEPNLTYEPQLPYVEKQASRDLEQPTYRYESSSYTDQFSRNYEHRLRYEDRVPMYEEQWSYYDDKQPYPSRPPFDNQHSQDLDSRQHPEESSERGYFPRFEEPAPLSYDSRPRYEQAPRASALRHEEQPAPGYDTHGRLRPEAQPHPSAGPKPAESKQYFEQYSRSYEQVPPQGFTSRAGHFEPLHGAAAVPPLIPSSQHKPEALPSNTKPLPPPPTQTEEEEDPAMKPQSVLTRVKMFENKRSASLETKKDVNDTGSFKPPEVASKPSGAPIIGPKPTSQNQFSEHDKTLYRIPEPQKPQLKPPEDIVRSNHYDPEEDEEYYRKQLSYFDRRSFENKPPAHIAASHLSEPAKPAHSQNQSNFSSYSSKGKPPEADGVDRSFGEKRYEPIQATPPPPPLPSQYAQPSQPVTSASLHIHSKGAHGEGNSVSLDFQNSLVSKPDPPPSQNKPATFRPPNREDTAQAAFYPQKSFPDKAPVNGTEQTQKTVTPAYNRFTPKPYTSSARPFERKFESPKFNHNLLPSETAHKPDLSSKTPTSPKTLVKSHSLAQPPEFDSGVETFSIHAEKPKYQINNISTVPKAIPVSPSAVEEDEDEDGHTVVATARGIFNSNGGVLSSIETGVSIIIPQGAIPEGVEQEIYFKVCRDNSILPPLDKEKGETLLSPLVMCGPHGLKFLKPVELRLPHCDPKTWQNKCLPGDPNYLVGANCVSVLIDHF
Conditions: remark: other sources report otherwise.

Results are given in words; binding and its absence hold for the method and conditions named. Binding seen in cells or lysates may run through a third protein. Some entries that bind do so weakly or less than the wild type.

As for cld3 (from UniProt O15551 1-220), the binding entry in assay [1] is on record as “binds”.

For the molecule ezrin (from UniProt P15311 1-586), the binding result in assay [2] and in assay [3] was “binds” throughout.

B1: cld4, O14493 1-209 (protein)
chain: MASMGLQVMGIALAVLGWLAVMLCCALPMWRVTAFIGSNIVTSQTIWEGLWMNCVVQSTGQMQCKVYDSLLALPQDLQAARALVIISIIVAALGVLLSVVGGKCTNCLEDESAKAKTMIVAGVVFLLAGLMVIVPVSWTAHNIIQDFYNPLVASGQKREMGASLYVGWAASGLLLLGGGLLCCNCPPRTDKPYSAKYSAARSAAASNYV
B1: the binding result in assay [4] is reported as “binds”.
